Our source for the binding values is article PMC4604683.

By UniProt entry, the sequences of proteins in these tests, tags left out. Residues count along the entry.
UniProt O14786, residues 22-923: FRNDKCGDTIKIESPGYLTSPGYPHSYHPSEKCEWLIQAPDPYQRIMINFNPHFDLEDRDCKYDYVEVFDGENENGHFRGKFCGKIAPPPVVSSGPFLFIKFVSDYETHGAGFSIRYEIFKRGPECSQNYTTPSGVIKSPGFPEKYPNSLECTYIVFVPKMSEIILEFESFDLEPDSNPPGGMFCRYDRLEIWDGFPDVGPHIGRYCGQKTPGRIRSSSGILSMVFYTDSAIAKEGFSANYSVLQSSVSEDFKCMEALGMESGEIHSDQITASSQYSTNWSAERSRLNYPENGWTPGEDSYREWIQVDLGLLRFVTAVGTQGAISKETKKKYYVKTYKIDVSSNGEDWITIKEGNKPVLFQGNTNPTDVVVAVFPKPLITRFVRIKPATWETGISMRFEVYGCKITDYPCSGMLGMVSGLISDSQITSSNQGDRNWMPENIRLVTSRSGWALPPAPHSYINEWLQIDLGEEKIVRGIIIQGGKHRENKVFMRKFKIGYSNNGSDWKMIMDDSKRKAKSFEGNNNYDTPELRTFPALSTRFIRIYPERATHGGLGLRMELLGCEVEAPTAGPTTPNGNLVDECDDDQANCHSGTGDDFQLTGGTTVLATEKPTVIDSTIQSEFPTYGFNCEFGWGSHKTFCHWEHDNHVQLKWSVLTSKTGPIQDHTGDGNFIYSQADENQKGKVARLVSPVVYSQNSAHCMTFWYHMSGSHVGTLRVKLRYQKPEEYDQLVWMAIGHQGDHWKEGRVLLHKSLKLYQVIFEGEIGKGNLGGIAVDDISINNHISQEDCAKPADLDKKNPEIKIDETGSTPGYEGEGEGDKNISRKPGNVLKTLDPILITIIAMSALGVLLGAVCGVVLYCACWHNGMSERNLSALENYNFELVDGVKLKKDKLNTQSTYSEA

No constants are given. Whether binding was seen depends on the method and setting. In cells and extracts the contact can be indirect. Some binding calls cover weakened binding; strength is not graded here.

In this assay the target is Neuropilin-1 (human (endogenous in HUVEC)) (UniProt O14786). Nature of the assay: co-IP; serum-starved HUVECs treated with conditioned medium for 10 min, washed, lysed in 0.5% NP-40; endogenous Nrp-1 immunoprecipitated (2 ug Nrp-1 antibody, Protein-G PLUS-agarose, 4°C overnight); bound Sema3C detected by Western blotting.

B1: Sema3CΔ13 isoform (domain or fragment, UniProt Q99985 21-738)
chain: GSSQPQARVYLTFDELRETKTSEYFSLSHHPLDYRILLMDEDQDRIYVGSKDHILSLNINNISQEALSVFWPASTIKVEECKMAGKDPTHGCGNFVRVIQTFNRTHLYVCGSGAFSPVCTYLNRGRRSEDQVFMIDSKCESGKGRCSFNPNVNTVSVMINEELFSGMYIDFMGTDAAIFRSLTKRNAVRTDQHNSKWLSEPMFVDAHVIPDGTDPNDAKVYFFFKEKLTDNNRSTKQIHSMIARICPNDTGGLRSLVNKWTTFLKARLVCSVTDEDGPETHFDELEDVFLLETDNPRTTLVYGIFTTSSSVFKGSAVCVYHLSDIQTVFNGPFAHKEGPNHQLISYQGRIPYPRPGTCPGGAFTPNMRTTKEFPDDVVTFIRNHPLMYNSIYPIHKRPLIVRIGTDYKYTKIAVDRVNAADGRYHVLFLGTDRGTVQKVVVLPTNNSVSGELILEELEVFKNHAPITTMKISSKKQQLYVSSNEGVSQVSLHRCHIYGTACADCCLARDPYCAWDGHSCSRFYPTGKRRSRRQDVRHGNPLTQCRGFNLKAYRNAAEIVQYGVKNNTTFLECAPKSPQASIKWLLQKDKDRRKEVKLNERIIATSQGLLIRSVQGSDQGLYHCIATENSFKQTIAKINFKVLDSEMVAVVTDKWSPWTWASSVRALPFHPKDIMGAFSHSEMQMINQYCKDTRQQHQQGDESQKMRGDYGKLKALINS
B1: the binding entry is listed as “no binding”.

B2: Sema3Cp60 isoform (domain or fragment, UniProt Q99985 21-552)
chain: GSSQPQARVYLTFDELRETKTSEYFSLSHHPLDYRILLMDEDQDRIYVGSKDHILSLNINNISQEALSVFWPASTIKVEECKMAGKDPTHGCGNFVRVIQTFNRTHLYVCGSGAFSPVCTYLNRGRRSEDQVFMIDSKCESGKGRCSFNPNVNTVSVMINEELFSGMYIDFMGTDAAIFRSLTKRNAVRTDQHNSKWLSEPMFVDAHVIPDGTDPNDAKVYFFFKEKLTDNNRSTKQIHSMIARICPNDTGGLRSLVNKWTTFLKARLVCSVTDEDGPETHFDELEDVFLLETDNPRTTLVYGIFTTSSSVFKGSAVCVYHLSDIQTVFNGPFAHKEGPNHQLISYQGRIPYPRPGTCPGGAFTPNMRTTKEFPDDVVTFIRNHPLMYNSIYPIHKRPLIVRIGTDYKYTKIAVDRVNAADGRYHVLFLGTDRGTVQKVVVLPTNNSVSGELILEELEVFKNHAPITTMKISSKKQQLYVSSNEGVSQVSLHRCHIYGTACADCCLARDPYCAWDGHSCSRFYPTGKRRSRR
Take B2: the binding entry is reported as “no binding”.

B3: Semaphorin-3C (full-length Sema3C) (ligand, UniProt Q99985 21-751)
chain: GSSQPQARVYLTFDELRETKTSEYFSLSHHPLDYRILLMDEDQDRIYVGSKDHILSLNINNISQEALSVFWPASTIKVEECKMAGKDPTHGCGNFVRVIQTFNRTHLYVCGSGAFSPVCTYLNRGRRSEDQVFMIDSKCESGKGRCSFNPNVNTVSVMINEELFSGMYIDFMGTDAAIFRSLTKRNAVRTDQHNSKWLSEPMFVDAHVIPDGTDPNDAKVYFFFKEKLTDNNRSTKQIHSMIARICPNDTGGLRSLVNKWTTFLKARLVCSVTDEDGPETHFDELEDVFLLETDNPRTTLVYGIFTTSSSVFKGSAVCVYHLSDIQTVFNGPFAHKEGPNHQLISYQGRIPYPRPGTCPGGAFTPNMRTTKEFPDDVVTFIRNHPLMYNSIYPIHKRPLIVRIGTDYKYTKIAVDRVNAADGRYHVLFLGTDRGTVQKVVVLPTNNSVSGELILEELEVFKNHAPITTMKISSKKQQLYVSSNEGVSQVSLHRCHIYGTACADCCLARDPYCAWDGHSCSRFYPTGKRRSRRQDVRHGNPLTQCRGFNLKAYRNAAEIVQYGVKNNTTFLECAPKSPQASIKWLLQKDKDRRKEVKLNERIIATSQGLLIRSVQGSDQGLYHCIATENSFKQTIAKINFKVLDSEMVAVVTDKWSPWTWASSVRALPFHPKDIMGAFSHSEMQMINQYCKDTRQQHQQGDESQKMRGDYGKLKALINSRKSRNRRNQLPES
For the molecule B3, the binding entry is listed as “binds”.
